{"source": "patent US9029394B2", "about": "“2-phenyl-4-quinolones as anticancer agents” (China Medical University, priority 2006, dated 2015)", "key": {"CT-26 tumor cells": {"system": "CT-26 tumor cells", "experiment": "CT-26 intraperitoneal tumor model", "type": "in vivo", "settings": "Balb/c mice", "experimental": "30 male 6-week-old Balb/c mice, were purchased from the National Animal cancer and maintained in pressurized ventilated cage according to institutional regulations. CT-26 (1×10^6) cells were injected into peritoneal cavities at day 0. Animals were randomly assigned to anti-tumoral efficacy study (n=10). Seven days after tumor inoculation, oral administration of 5 and 10 mg/kg of I-1-b (QD for seven times) to the mice was carried out. The survival rate and body weight of the animals was monitored."}, "MCF7 tumor xenografts": {"system": "MCF7 tumor xenografts", "experiment": "MCF-7 tumor xenograft model", "type": "in vivo", "settings": "female SCID mice, s.c. MCF7 xenograft, 45 mg/kg i.p. three times per week, P<0.001"}}, "note": "For at least one compound, name, drawing or mass did not settle the structure."}
{"smiles": "O=P(O)(O)Oc1cc(-c2ccccc2F)nc2cc3c(cc12)OCO3", "note": "[Compound I-1-b, 2-(2′-Fluorophenyl)-6,7-methylenedioxyquinolin-4-yl-phosphate]", "values": [{"measurement": "ascites development", "setting": "CT-26 tumor cells; i.p. CT-26, oral 5 mg/kg/day QD×7", "result": "reduced ascites development"}, {"measurement": "ascites development", "setting": "CT-26 tumor cells; i.p. CT-26, oral 10 mg/kg/day QD×7", "result": "reduced ascites development"}, {"measurement": "tumor volume compared with control mice", "setting": "MCF7 tumor xenografts", "result": "significant reduction in tumor volume"}]}
